Data as given in PubChem BioAssay AID652259 (Drosophila RNAi Screening Center, 2013)
The screen tested about 22,000 reagents; shown is a random part of those with a known target gene and a result. In the full data, 233 (1.1%) got an active call. 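Light values are raw, unnormalised plate reads; the ratio scores behind the reporter calls were not deposited.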 Unmarked entries are inactive. A plus sign joins genes that one reagent is predicted to hit. No sequences are given here. The record does not give: the amount of reagent, the time to read-out, the dose of the treatment.

Aim: 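Identify new Wingless signalling regulators in fly cells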 (primary screen)
Cells: Drosophila clone 8 imaginal disc epithelial cells
Knock-down reagent: long dsRNA against Drosophila genes
Treatment: pathway stimulated by co-transfected Wingless expression plasmid
Detection: 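Dual luciferase reads per well after Wingless plasmid stimulation: reporter firefly light and Renilla control light; activity is firefly divided by Renilla, a ratio not deposited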
Direction: firefly reporter light: higher = more Wg reporter light, before normalisation; Renilla control light: higher = more transfected or surviving cells
Active means: 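a knock-down is a candidate when at least two out of four statistical tests show it departing from its plate mean; one test alone signals a weak candidate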
Calls: active = candidate regulator (raises or lowers reporter); inactive = not a candidate

| gene knocked down | dsRNA | reporter change call, replicate 1 | firefly reporter light, replicate 1 | firefly reporter light, replicate 2 | Renilla control light, replicate 1 | Renilla control light, replicate 2 |
| --- | --- | --- | --- | --- | --- | --- |
| CG43104 (retired record) | DRSC05624 | – | 17057 | – | 12486 | – |
| CG16898 | DRSC06635 | – | 4672 | – | 1866 | – |
| CG42450 | DRSC20022 | – | 14376 | – | 9079 | – |
| CG42450 | DRSC22751 | – | 4.31e5 | 5.31e5 | 1.89e5 | 2.03e5 |
| CG5162 | DRSC19935 | – | 21817 | – | 10053 | – |
| CG5787 | DRSC02895 | – | 9922 | – | 2787 | – |
| CG32512 | DRSC20519 | – | 21272 | – | 12630 | – |
| CG32512 | DRSC20551 | – | 14560 | – | 9067 | – |
| CG32512 | DRSC21401 | – | 4.83e5 | 4.77e5 | 1.72e5 | 1.29e5 |
| sing + Axs | DRSC19333 | – | 20907 | – | 8512 | – |
| Vha14-1 | DRSC07571 | – | 4947 | – | 2132 | – |
| CG13538 | DRSC04180 | – | 4064 | 6577 | 886 | 2416 |
| Spt-I | DRSC06860 | – | 9827 | – | 3376 | – |
| ci | DRSC17172 | – | 15253 | – | 15008 | – |
| CG7006 | DRSC16169 | – | 2204 | 9367 | 1259 | 2096 |
| toc | DRSC00169 | – | 21300 | – | 9432 | – |
| toc | DRSC00171 | – | 18064 | – | 8073 | – |
| toc | DRSC00842 | – | 9559 | – | 3408 | – |

Part of the list above, reformatted.
{"gene knocked down":"CG32512","dsRNA":"DRSC20551","firefly reporter light, replicate 1":14560,"Renilla control light, replicate 1":9067}
{"gene knocked down":"CG32512","dsRNA":"DRSC21401","firefly reporter light, replicate 1":4.83e5,"firefly reporter light, replicate 2":4.77e5,"Renilla control light, replicate 1":1.72e5,"Renilla control light, replicate 2":1.29e5}
{"gene knocked down":"sing + Axs","dsRNA":"DRSC19333","firefly reporter light, replicate 1":20907,"Renilla control light, replicate 1":8512}
{"gene knocked down":"Vha14-1","dsRNA":"DRSC07571","firefly reporter light, replicate 1":4947,"Renilla control light, replicate 1":2132}
{"gene knocked down":"CG13538","dsRNA":"DRSC04180","firefly reporter light, replicate 1":4064,"firefly reporter light, replicate 2":6577,"Renilla control light, replicate 1":886,"Renilla control light, replicate 2":2416}

The listing continues:
| gene knocked down | dsRNA | reporter change call, replicate 1 | firefly reporter light, replicate 1 | firefly reporter light, replicate 2 | Renilla control light, replicate 1 | Renilla control light, replicate 2 |
| --- | --- | --- | --- | --- | --- | --- |
| eff | DRSC16940 | – | 18665 | – | 3531 | – |
| Nup205 | DRSC19432 | Wg reporter activity raised (active) | 7285 | 14505 | 928 | 2269 |
| CG13423 | DRSC06386 | – | 5827 | – | 2122 | – |
| mRpL23 | DRSC08307 | – | 5024 | – | 2666 | – |
| CG14006 | DRSC02338 | – | 1706 | 5428 | 816 | 2483 |
| CG13023 | DRSC09454 | – | 2816 | – | 1232 | – |
| CG13023 | DRSC09903 | – | 9488 | – | 3816 | – |
| Cipc | DRSC14898 | – | 2066 | 4474 | 965 | 2154 |
| Cipc | DRSC14900 | – | 21112 | – | 13416 | – |
| shg | DRSC04714 | – | 11025 | – | 2720 | – |
| Col4a1 | DRSC03291 | – | 8761 | – | 4260 | – |
